Binding data for three molecules are collected here from article PMC7337906.

These are yes or no findings as the source states them, for the method shown. For some assays here: Binding calls can cover weak binding; strength is not graded here. Sequences can lack the tags named with a protein.

What all share (test): native gel or EMSA; native PAGE; proteins at 5 μM in HBS-200 with an additional 10% glycerol, 30 min on ice; 6% polyacrylamide, tris-glycine, run 2 h, Coomassie stained; both purified
Background: In EMSA bound probe runs differently from free probe, usually more slowly.

In assay [1] the target is Tof1(1–900)ΔL1,3–Csm3 (Chaetomium thermophilum).
In assay [2] the target is Tof1–Csm3 with Tof1 K51C (Chaetomium thermophilum).
The target in assay [3] is Tof1–Csm3 Basic Patch-mutated 1 (BP1; Tof1 K50A/R54A/R98A/R173A) (Chaetomium thermophilum).

B1: Mrc1-N (maltose binding protein-fused Mrc1 1–400) (domain or fragment, UniProt P25588 1-400)
chain: MDDALHALSSLTAKKRTTTYKKVAVPILDENDNTNGNGPNDIDNPPELTGNGFLFANATLNRVKNRLEGKKAPEQNHNNGKDRSENSLPTQLISNLYDGGEELEKSEVKDNSYSEKNVSSSFTQTQRIPVSIQQDKVFNVPIHSVNDGKPTQLIKEDGLVNETSQALKTPLTTGRPGATQRIDSSGATSQTQPIKSIEPQSQIITTSSNHSNALSPKIPIIPTELIGTSPLFQSIQNRGPDTQMDVPPQTAHDEDKTQAIGIPQATHQEQKTQIDTVAQTLQDEVPHTLKIREIQSELASEDSKREKARNVEYKKPQKPIPTKKFFSKESFLADFDDSSSNEDDDIKLENAHPKPVQNDDELHENKSVELNLTDETRINEKRVPLLSSYANNLKREIDSS
Consider B1, for which the binding entry in assay [1] was “no binding (tested: 5 μM)”.

B2: Mrc1-mid (maltose binding protein-fused Mrc1 401–800) (domain or fragment, UniProt P25588 401-800)
chain: KCITLDLDSDSDEYGDDDMDSIKLSKDESVLPISQLSKATILNLKARLSKQNQKLSQRPNKSKDPKVDHNVLLNTLRKASRKQILDHQKEVIETKGLKLEDMAKEKEIVENLLEQEILRNKRIRQKEKRREKLEENDFQLNAHDSGSDSGSESSGFALSGNEIADYESSGSENDNRRESDSEKEDDEIILKQKKSHHVKHIINESDSDTEVEAKPKEKADESLPKRIAINLGHYGDNIGEDTDKFQETNVLDTQNIEEVMAERNTIENEVKDDVYVNEEADEAIRRQLIDKEKLQLKQKEKEHEAKIKELKKRGVTNFFEMEAEESEDEWHGIGGADGEGSDDYDSDLEKMIDDYSKNNFNPHEIREMLAAENKEMDIKMINKILYDIKNGGFRNKRAKN
Turning to B2, the binding result is listed as “binds” in assay [1], “binds” in assay [2] and “no binding (tested: 5 μM)” in assay [3].

B3: Mrc1-C (maltose binding protein-fused Mrc1 801–1096) (domain or fragment, UniProt P25588 801-1096)
chain: SLELELSDDDEDDVLQQYRLKRRELMRKRRLEIGDDAKLVKNPKSSAFFESMVEDIIEYKNPFGAEEEYNLDITSTATDLDTQDNSINVGDNTGNNEQKPVDQKNKKVIISEDFVQKSLSFLKSNNYEDFETDKELSRIQHGNDEAIEDLYTLKQNSSIKSFTNSQTDSTTSKTVNTIIDLEKRPEDEDEVENGDTSLVGVFKHPSIIKSFASRTDINDKFKEGNKTVKILKSYKTVGSSKASITYMGKTRKLIAPKRKTEGSHRYHHDHHNKKMKMKTKTKSNKLFESGQDSFDN
For the molecule B3, in assay [1], the binding result is reported as “no binding (tested: 5 μM)”.
